In article PMC5793121 (Toxins, 2018):

Tests used:
[1] = general procedure: Fmoc solid-phase peptide synthesis; Tentagel S RAM; HATU, HOAt, DIPEA; conditions: whole synthesis, based on resin loading, acetate
[2] = general procedure: Fmoc solid-phase peptide synthesis; Tentagel S RAM (Knorr linker); HATU, HOAt, DIPEA; conditions: whole synthesis, UPLC-MS, acetate

azemiopsin
isolated yield [1]: about 20%
final LC-MS purity [2]: greater than 97%
final purity (method not given) [2]: about 90%
